Structures can show the parent of a compound that is named as a salt. The list shows a part of the results. The calls rarely recur for the same compound in another form.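 In K562 cells expressing nanoluciferase-fused kinases, luminescence was recorded at 4 h intervals between 2 and 18 h, normalized as percent of control with DMSO at 100% and a positive control at 0%. A significant (2 sigma) signal drop marks a time point as decreased. The authors' rule for a hit is not shown and takes in more than the number of time points.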
Key:
Test in all cases: number of time points (of 5) at which kinase-Nluc abundance scored as decreased, DMSO-normalised (count); higher = more persistent destabilization
Conditions in all cases: K562; 2-18 h
NTRK3 = NTRK3 (UniProt Q16288)
PAK4 = PAK4 (UniProt O96013)
PBK = PBK (UniProt Q96KB5)
PDGFRB = PDGFRB (UniProt P09619)
PDK1 = PDK1 (UniProt Q15118)
PDPK1 = PDPK1 (UniProt O15530)
PIK4CA = PIK4CA (UniProt P42356)
PIK4CB = PIK4CB (UniProt Q9UBF8)
PLK1 = PLK1 (UniProt P53350)
PRKAA1 = PRKAA1 (UniProt Q13131)

By UniProt entry, the sequences of proteins in these tests, tags left out. Where a name states a change or a piece, a line headed by the entry shows the natural chain unless it says otherwise.
UniProt Q16288, whole entry, looked up: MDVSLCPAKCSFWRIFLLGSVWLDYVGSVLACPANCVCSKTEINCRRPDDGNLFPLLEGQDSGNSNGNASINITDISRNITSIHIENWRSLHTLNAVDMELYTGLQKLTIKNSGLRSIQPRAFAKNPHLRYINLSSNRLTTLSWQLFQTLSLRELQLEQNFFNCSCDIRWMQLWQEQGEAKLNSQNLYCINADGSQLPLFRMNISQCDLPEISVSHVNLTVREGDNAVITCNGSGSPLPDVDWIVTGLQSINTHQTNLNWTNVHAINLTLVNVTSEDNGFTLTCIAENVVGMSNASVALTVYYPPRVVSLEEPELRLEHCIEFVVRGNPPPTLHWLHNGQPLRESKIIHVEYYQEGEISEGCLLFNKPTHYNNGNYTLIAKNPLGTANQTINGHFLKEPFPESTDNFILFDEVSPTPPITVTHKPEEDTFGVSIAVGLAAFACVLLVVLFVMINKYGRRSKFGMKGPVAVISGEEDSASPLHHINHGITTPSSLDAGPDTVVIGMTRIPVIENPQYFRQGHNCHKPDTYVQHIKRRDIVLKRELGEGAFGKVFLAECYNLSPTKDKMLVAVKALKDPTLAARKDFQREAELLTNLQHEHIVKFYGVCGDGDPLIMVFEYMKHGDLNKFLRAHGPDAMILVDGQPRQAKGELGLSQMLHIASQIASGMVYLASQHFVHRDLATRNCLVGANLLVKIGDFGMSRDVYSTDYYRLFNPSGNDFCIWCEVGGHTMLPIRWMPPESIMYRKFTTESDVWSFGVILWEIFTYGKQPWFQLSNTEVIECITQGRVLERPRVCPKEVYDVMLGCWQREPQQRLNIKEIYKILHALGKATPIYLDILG
UniProt O96013: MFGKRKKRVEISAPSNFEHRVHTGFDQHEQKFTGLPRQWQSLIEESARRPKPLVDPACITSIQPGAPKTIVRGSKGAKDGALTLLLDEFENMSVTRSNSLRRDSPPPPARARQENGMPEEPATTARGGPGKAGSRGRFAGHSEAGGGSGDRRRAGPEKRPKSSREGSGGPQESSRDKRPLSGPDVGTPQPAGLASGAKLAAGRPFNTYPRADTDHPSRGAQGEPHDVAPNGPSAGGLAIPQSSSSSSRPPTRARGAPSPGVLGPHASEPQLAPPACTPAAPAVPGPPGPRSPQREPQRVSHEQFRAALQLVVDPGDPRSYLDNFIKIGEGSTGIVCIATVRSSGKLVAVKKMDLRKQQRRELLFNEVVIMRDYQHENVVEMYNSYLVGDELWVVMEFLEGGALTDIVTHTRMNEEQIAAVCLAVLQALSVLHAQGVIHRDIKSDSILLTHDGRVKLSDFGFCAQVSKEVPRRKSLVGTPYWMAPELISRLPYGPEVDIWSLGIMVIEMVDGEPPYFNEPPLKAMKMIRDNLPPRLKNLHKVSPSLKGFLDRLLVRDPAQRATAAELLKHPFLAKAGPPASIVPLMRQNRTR
UniProt Q96KB5: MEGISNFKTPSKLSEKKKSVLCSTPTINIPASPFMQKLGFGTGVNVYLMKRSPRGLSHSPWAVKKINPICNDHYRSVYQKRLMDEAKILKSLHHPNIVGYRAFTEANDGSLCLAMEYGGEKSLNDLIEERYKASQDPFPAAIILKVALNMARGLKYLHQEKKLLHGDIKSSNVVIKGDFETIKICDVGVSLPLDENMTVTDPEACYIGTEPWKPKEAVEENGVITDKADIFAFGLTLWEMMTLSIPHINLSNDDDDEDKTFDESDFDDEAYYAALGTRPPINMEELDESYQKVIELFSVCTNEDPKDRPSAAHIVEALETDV
UniProt P09619, whole entry: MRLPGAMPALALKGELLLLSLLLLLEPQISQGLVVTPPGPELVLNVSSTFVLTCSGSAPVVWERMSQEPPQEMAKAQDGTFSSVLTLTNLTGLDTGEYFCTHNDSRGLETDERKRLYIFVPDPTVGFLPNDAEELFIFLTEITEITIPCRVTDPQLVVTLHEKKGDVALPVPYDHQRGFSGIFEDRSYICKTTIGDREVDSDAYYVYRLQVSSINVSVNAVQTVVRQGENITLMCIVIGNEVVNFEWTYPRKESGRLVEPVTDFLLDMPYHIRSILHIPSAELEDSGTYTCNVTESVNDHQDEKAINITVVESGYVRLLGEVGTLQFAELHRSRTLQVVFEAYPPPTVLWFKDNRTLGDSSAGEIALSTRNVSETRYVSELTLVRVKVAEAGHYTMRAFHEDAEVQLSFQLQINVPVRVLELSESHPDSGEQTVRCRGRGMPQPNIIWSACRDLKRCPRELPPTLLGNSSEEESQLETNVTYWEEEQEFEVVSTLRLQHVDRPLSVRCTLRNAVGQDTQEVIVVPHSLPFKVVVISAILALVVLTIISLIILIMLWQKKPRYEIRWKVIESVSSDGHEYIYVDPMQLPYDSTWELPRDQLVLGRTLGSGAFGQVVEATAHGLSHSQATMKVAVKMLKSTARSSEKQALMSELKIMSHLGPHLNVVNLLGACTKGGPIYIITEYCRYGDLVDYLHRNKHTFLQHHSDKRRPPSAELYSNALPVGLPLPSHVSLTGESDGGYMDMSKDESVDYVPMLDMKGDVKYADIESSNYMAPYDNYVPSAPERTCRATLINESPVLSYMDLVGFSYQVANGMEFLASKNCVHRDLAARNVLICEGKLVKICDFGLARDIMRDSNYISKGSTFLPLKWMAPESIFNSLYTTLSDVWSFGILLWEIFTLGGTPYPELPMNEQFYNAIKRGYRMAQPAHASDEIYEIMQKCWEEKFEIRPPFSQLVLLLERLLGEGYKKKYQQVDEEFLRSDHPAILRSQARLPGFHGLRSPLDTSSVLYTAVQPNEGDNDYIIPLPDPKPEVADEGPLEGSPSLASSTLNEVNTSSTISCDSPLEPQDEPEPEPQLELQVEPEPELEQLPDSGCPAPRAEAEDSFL
UniProt Q15118, whole entry, looked up: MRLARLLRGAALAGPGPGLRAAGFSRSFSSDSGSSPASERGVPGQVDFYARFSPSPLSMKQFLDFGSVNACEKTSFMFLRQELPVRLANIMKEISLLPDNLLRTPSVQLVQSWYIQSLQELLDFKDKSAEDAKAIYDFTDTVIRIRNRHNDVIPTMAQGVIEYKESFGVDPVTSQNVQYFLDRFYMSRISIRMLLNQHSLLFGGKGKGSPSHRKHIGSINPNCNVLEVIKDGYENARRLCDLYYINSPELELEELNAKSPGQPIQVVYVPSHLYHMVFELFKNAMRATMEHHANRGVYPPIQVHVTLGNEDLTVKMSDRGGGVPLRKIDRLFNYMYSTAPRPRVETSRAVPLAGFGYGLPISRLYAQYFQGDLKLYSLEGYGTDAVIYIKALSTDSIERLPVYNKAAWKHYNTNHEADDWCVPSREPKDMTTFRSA
UniProt O15530: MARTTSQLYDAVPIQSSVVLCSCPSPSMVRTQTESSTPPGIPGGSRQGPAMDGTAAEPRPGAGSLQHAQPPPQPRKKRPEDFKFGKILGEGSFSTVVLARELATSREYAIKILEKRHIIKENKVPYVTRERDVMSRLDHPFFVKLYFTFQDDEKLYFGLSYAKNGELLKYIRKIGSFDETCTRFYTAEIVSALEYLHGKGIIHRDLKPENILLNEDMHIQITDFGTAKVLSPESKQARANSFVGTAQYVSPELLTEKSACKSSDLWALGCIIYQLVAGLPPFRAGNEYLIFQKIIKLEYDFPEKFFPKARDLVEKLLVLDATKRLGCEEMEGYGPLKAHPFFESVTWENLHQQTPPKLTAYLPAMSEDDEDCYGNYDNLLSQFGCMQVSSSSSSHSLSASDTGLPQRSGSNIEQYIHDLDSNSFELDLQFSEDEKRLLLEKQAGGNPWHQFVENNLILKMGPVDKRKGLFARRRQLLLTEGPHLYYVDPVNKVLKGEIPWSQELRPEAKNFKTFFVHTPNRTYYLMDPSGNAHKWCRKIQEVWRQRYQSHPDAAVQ
UniProt P42356, whole entry, looked up: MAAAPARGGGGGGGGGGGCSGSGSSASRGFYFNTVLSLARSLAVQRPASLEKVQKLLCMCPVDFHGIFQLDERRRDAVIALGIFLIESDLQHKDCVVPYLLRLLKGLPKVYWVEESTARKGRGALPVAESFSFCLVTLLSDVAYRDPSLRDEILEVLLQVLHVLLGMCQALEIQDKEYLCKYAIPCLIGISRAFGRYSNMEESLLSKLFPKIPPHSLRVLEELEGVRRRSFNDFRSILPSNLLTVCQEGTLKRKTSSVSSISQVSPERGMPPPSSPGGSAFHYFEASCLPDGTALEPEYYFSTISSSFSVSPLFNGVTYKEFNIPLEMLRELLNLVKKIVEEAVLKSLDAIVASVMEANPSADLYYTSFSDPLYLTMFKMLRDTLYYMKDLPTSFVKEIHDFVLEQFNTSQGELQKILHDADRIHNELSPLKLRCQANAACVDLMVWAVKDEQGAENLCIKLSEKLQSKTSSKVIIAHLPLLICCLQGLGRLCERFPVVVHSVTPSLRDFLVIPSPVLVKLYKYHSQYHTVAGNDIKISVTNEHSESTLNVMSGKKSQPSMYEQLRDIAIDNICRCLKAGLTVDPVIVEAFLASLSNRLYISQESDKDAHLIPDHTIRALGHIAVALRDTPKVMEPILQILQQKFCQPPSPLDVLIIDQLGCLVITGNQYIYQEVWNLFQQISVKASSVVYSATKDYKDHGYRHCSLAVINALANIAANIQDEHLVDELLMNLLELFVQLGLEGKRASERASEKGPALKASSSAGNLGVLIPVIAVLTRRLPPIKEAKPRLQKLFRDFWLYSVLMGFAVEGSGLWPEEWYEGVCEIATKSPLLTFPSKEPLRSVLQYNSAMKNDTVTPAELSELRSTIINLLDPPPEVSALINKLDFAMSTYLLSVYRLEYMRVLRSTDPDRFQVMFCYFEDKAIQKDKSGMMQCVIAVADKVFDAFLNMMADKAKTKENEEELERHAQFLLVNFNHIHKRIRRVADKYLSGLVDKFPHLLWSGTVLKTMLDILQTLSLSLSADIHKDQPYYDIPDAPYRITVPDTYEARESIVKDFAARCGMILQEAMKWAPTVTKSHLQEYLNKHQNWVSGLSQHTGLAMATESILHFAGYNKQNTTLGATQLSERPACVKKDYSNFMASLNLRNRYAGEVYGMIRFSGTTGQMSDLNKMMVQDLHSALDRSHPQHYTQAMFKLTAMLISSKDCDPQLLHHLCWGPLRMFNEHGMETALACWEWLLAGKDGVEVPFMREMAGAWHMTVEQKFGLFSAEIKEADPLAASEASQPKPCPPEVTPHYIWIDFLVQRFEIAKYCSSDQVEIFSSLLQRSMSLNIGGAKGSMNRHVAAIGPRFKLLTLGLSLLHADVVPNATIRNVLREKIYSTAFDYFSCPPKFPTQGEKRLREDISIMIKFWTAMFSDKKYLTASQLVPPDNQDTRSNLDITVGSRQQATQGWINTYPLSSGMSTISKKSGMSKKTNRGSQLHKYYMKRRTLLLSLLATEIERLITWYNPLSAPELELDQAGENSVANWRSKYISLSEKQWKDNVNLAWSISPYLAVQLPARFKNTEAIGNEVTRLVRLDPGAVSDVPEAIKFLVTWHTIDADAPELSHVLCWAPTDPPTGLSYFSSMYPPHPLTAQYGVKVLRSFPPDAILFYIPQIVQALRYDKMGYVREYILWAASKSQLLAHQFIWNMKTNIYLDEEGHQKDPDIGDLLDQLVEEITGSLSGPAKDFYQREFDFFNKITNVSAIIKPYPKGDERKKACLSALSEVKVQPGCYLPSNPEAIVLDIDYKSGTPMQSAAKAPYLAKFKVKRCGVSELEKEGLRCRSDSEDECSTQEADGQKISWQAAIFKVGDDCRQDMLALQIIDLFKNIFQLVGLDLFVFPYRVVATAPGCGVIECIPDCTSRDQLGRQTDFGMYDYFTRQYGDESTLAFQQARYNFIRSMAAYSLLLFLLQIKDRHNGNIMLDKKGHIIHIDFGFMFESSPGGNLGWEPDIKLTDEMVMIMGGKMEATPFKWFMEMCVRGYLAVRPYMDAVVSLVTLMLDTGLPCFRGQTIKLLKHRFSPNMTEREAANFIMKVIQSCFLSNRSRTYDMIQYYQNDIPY
UniProt P53350, whole entry: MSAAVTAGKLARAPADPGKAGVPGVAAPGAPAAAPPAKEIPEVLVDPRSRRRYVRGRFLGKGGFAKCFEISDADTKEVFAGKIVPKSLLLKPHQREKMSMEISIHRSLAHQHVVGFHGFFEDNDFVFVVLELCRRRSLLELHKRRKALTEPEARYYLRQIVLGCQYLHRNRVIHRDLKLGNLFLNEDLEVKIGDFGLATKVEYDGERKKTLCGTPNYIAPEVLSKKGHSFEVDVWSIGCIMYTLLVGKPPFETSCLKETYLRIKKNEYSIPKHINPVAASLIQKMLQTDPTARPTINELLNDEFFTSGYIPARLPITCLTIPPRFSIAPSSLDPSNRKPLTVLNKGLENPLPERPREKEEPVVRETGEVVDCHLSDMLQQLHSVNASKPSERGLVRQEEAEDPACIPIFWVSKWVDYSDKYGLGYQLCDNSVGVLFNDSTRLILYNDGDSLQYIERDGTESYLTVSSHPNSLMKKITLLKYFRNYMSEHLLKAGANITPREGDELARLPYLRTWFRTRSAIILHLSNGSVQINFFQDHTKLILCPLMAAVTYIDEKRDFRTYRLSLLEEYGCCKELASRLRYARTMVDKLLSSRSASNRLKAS

Measured: number of time points

NC1=NCCN1CC(=O)O [Cyclocreatine] (10 µM)
0: all assays above

CC(=O)c1c(C)c2cnc(Nc3ccc(N4CCN(C(=O)CNc5cccc6c5C(=O)N(C5CCC(=O)NC5=O)C6=O)CC4)cn3)nc2n(C2CCCC2)c1=O (stereo not given) (10 µM)
0: all assays above

CN(c1ccc(NC(=O)Nc2ccc(OC(F)(F)F)cc2)cc1)c1ccnc(Nc2cccc(S(N)(=O)=O)c2)n1 (2.5 µM)
2: PIK4CA
0: PAK4 | PBK | PDK1
3: PDGFRB | PDPK1 | PIK4CB
1: all other assays above

Nc1nc(N)c2nc(-c3cccc(O)c3)cnc2n1 (10 µM)
0: all assays above

Cc1ccn2c(C(=O)C(=O)c3ccccc3)c(-c3ccccc3)nc2c1 (10 µM)
0: all assays above

O=c1cc(-c2cccc3c2Sc2ccccc2S3)oc(N2CCOCC2)c1 (10 µM)
0: all assays above

C=CCc1ccc(O)c(-c2ccc(O)c(CC=C)c2)c1 [Honokiol] (10 µM)
0: all assays above

C[C@@H]1COCCN1c1nc(-c2cnc(N)cc2C(F)F)nc(N2[C@H](C)COC[C@@H]2C)n1 (2.5 µM)
2: PDPK1
1: PIK4CA
3: NTRK3
0: all other assays above

COc1ccc(-c2c(C)nn3c(NCCN4CCOCC4)cc(C)nc23)cc1OC (10 µM)
0: all assays above

An excerpt from above in order of SMILES length, ascending:
C=CCc1ccc(O)c(-c2ccc(O)c(CC=C)c2)c1 [Honokiol] (10 µM)
0: all assays above

Cc1ccn2c(C(=O)C(=O)c3ccccc3)c(-c3ccccc3)nc2c1 (10 µM)
0: all assays above

COc1ccc(-c2c(C)nn3c(NCCN4CCOCC4)cc(C)nc23)cc1OC (10 µM)
0: all assays above

Next results.

Oc1ccc(/C=C/c2cc(O)cc(F)c2)cc1 [Resveratrol analog 1] (10 µM)
0: all assays above

CN(C)CCC=C1c2ccccc2CCc2ccccc21 [Amitriptyline (hydrochloride)] (2.5 µM)
0: all assays above

CCCCCCCCCCCCCCCCOP(=O)([O-])OCC[N+](C)(C)C [Miltefosine] (10 µM)
0: all assays above

Cc1ccc(Oc2nc3cc(-c4ccc(-c5ccccc5)cc4)c(Cl)cc3[nH]2)cc1C(=O)O (10 µM)
1: PLK1
0: all other assays above

C=CC(=O)N1C[C@H](COc2nc(Nc3cnn(C)c3)nc3[nH]cc(Cl)c23)[C@@H](OC)C1 (2.5 µM)
0: all assays above

COc1ccc(S(=O)(=O)NCc2ccc(C(=O)NCCc3ccc(Cl)cn3)cc2)cc1 (10 µM)
0: all assays above

N#Cc1c2nc3ccccc3nc2n2ccc(NC(=O)c3cccs3)cc12 (10 µM)
0: all assays above

O[C@@H]1CO[C@H]2[C@@H]1OC[C@H]2Oc1nc2nc(-c3ccc(-c4ccccc4)cc3)c(Cl)cc2[nH]1 (10 µM)
1: NTRK3
0: all other assays above

CC(C)CCNC(=O)c1ccc2c(c1)nc(Nc1n[nH]c3ccc(-c4ccccc4OC(F)(F)F)cc13)n2C1CCC(O)CC1 (stereo not drawn) [IRAK inhibitor 4 (trans)] (10 µM)
0: all assays above

CN(C)c1nc2c(Br)c(Br)c(Br)c(Br)c2[nH]1 (10 µM)
0: all assays above

Cn1cc2cc(C(F)(F)c3nnc4ccc(-c5cnn(C6CC6)c5)nn34)c(F)cc2n1 [Bozitinib] (10 µM)
0: all assays above

C=CC(=O)N1CCC[C@H](n2c(=O)n(-c3ccc(Oc4ccccc4)cc3)c3c(N)ncnc32)C1 [ONO-4059 (analog)] (10 µM)
0: all assays above

CNC(=O)c1ccccc1Nc1nc(Nc2ccc3c(c2OC)CCC[C@H](N2CCN(CCO)CC2)C3)ncc1Cl (10 µM)
4: PDPK1 | PIK4CA
2: PRKAA1
1: PIK4CB | PLK1
0: all other assays above

Nc1nccc(Oc2ccc(NC(=O)c3c[nH]cc(-c4ccc(F)cc4)c3=O)cc2F)c1Cl (10 µM)
1: PRKAA1
4: PDGFRB | PIK4CA
0: all other assays above

C[C@@H]1O[C@@H](O[C@@H]2[C@@H](O)[C@H](OCCc3ccc(O)c(O)c3)O[C@H](CO)[C@H]2OC(=O)/C=C/c2ccc(O)c(O)c2)[C@H](O)[C@H](O)[C@H]1O [Verbascoside] (10 µM)
0: all assays above

CCc1cncnc1N1CCN(Cc2nc3ccc(C(F)(F)F)cc3[nH]2)CC1 (10 µM)
0: all assays above

Cn1cc(-c2c[nH]c3ncnc(N4CCOCC4)c23)cc1C#N (10 µM)
0: all assays above

N#Cc1ccnc(Nc2cc(C3CCN(C4COC4)CC3)cc(N3CCC(F)(F)C3)n2)c1 (2.5 µM)
0: all assays above

Nc1n[nH]c2nc(-c3ccc(NS(=O)(=O)c4cc(Cl)ccc4F)cc3)cnc12 (10 µM)
0: all assays above

Cc1cnc(NC2CCOCC2)nc1-n1cnc(C(=O)N[C@H](CN)c2cc(F)cc(Cl)c2)c1 (10 µM)
0: all assays above

Cc1c(-c2ccc(C(N)=O)c3[nH]c4cc(C(C)(C)O)ccc4c23)cccc1-n1cnc2ccccc2c1=O (2.5 µM)
0: all assays above

O=C(N[C@@H](C1CC1)C(F)(F)F)c1cc(-c2cnn3cc(-c4ccc(F)cc4)cnc23)cs1 (10 µM)
0: all assays above

O=C1NC(=O)/C(=C/c2ccc3nccc(-c4ccncc4)c3c2)S1 (10 µM)
0: all assays above

Cn1ncc2cc(-c3cnc(N)c(Cl)c3N3CCC4(CCNC4=O)CC3)ccc21 (10 µM)
0: all assays above

— the supplement of paper PMC12823440, “Inhibitors supercharge kinase turnover through native proteolytic circuits” (Nature, 2025)
